Assay results from publication PMC12670160, “A drug-repurposing screen of FDA- and EMA-approved drugs identifies two NF-κB inhibitors active against eumycetoma” (Journal of Antimicrobial Chemotherapy, 2025).
Counter-ions that a name gives are not always drawn. Out of some 5,300 compounds screened, about 130 (2.5%) showed an effect of 50% or more. The list shows a part of the results.

What follows are compounds tested on M. mycetomatis strain mm55. Details: primary screen, metabolic activity vs growth control; 96 h, 2 µM; inhibitor.

Compound | % viability [%]
C[C@H]1C[C@H]2[C@@H]3CCC4=CC(=O)CC[C@]4(C)[C@H]3C(=O)C[C@]2(C)[C@@]1(O)C(=O)CO [ONC0004828, betapar meprednisone] | 78.26
CCCCCCCC/C=C\CCCCCCCC(=O)NCCc1ccc(O)c(O)c1 [ONC0001500, olda] | 114.1
CC(Nc1ncnc2nc[nH]c12)c1cc2ccc(F)cc2nc1-c1ccccn1 (stereo not shown) [ONC0004426, amg319] | 156.7
O=C1C(c2ccccn2)=[N+]([O-])c2ccccc21 [ONC0001887, pit tosylate] | 113.2
CNc1nc(NCc2ccc(NS(C)(=O)=O)cc2Cl)cc(-c2ccccn2)n1 [ONC0003557, tcg1008] | 113.9
CCCCCCCCc1ccc(CCC(N)(CO)CO)cc1 [ONC0005159, fingolimod fty720 hcl] | 130.1
Nc1ncnc2c1c(-c1cccc(OCc3ccccc3)c1)cn2C1CC(CN2CCC2)C1 (stereo not shown) [ONC0005227] | 172.4
C[C@]12CC[C@@H]3c4ccc(O)cc4CC[C@H]3[C@@H]1CCC2=O [ONC0000773, estrone] | 80.26
c1ccc(N2CCN(Cc3nc4ccccc4[nH]3)CC2)nc1 [ONC0001520, abt724] | 87.74
C[C@@H]1NC(C)(C)CO[C@@]1(O)c1cccc(Cl)c1 [ONC0001157, radafaxine hydrochloride] | 85.48
COC(=O)c1c(-c2cc(OC)c(OC)c(OC)c2)c2ccnc(OCc3ncccn3)c2c(=O)n1Cc1ccnc(C)c1 [ONC0001287, t0156] | 86.64
COc1cc(C(=O)NC2CCCNC2)cc(OC)c1OC (stereo not shown) [ONC0004799, troxipide] | 108.6
CC(C)(S)C(N)C(=O)O (stereo not shown) [ONC0000482, penicillamine ethanolamine salt] | 72.35
CN1CCC(COc2cnc(-c3cccc(Cn4nc(-c5cccc(C#N)c5)ccc4=O)c3)nc2)CC1 [ONC0002111, tepotinib] | 69.09
O=S(=O)(N[C@H](CO)C(C(F)(F)F)C(F)(F)F)c1ccc(Cl)s1 [ONC0002115, begacestat] | 92.91
CC(C)c1cc(C(=O)N2Cc3ccc(CN4CCN(C)CC4)cc3C2)c(O)cc1O [ONC0004868, onalespib at13387] | 102.1
CC1Oc2cc(cnc2N)-c2c(nn(C)c2C#N)CN(C)C(=O)c2ccc(F)cc21 (stereo not shown) [ONC0005163, pf06463922] | 67.6
CCOC(=O)C1=C[C@]2(CC)CCCN3CCc4c(n1c1ccccc41)[C@@H]32 [ONC0002865, vinpocetine] | 109.8
Cc1ccnc2c1CCCC2C(N)=S (stereo not shown) [ONC0003697, isotiquimide] | 106
CNCCC(Oc1ccccc1OC)c1ccccc1 (stereo not shown) [ONC0001641, nisoxetine] | 70.74

Exported comma-delimited: two of the compounds above
Compound,% viability [%]
"C[C@H]1C[C@H]2[C@@H]3CCC4=CC(=O)CC[C@]4(C)[C@H]3C(=O)C[C@]2(C)[C@@]1(O)C(=O)CO [ONC0004828, betapar meprednisone]",78.26
Nc1ncnc2c1c(-c1cccc(OCc3ccccc3)c1)cn2C1CC(CN2CCC2)C1 (stereo not shown) [ONC0005227],172.4

Going on with the list:

Compound | % viability [%]
CCOc1ccc(S(=O)(=O)O)c2cccnc12 [ONC0004189, actinoquinol sodium] | 93.46
Cn1cnnc1Sc1c([N+](=O)[O-])ncn1C [ONC0003606, mnitmt] | 130.1
Cc1cccc(CN2CCN(C(c3ccccc3)c3ccc(Cl)cc3)CC2)c1 (stereo not shown) [ONC0000457, meclizine hydrochloride] | 74.07
COc1cnc(NS(=O)(=O)c2ccc(N)cc2)nc1 [ONC0000635, sulfameter] | 120.1
O=C(O)CCn1c2c(c3ccccc31)C[C@H](NS(=O)(=O)c1ccc(F)cc1)CC2 [ONC0000918, ramatroban] | 93.57
O=C(O)CCC(=O)Nc1ccc(S(=O)(=O)Nc2nccs2)cc1 [ONC0000581, succinylsulfathiazole] | 107.1
O=C1N=C(NCc2cccs2)S/C1=C\c1ccc2ncccc2c1 [ONC0001760, ro3306] | 79.85
CCCCCCCN(CC)CCCC(O)c1ccc(NS(C)(=O)=O)cc1 (stereo not shown) [ONC0004875, ibutilide fumarate] | 79.19
C=C1C[C@]23C[C@@]1(O)CC[C@H]2[C@@]12C=C[C@H](O)[C@@](C)(C(=O)O1)[C@H]2[C@@H]3C(=O)O [ONC0003464, gibberellic acid] | 70.49
Cn1cc(C=C2C(=O)Nc3cccnc32)c2ccccc21 [ONC0004257, gw441756] | 60.77
CCOc1ccc(-c2nc(-c3cccc4c3CCC4NCCO)no2)cc1OCC (stereo not shown) [ONC0001502, cym5442] | 91.21
Cn1c(=O)cc(N2CCC[C@@H](N)C2)n(Cc2ccccc2C#N)c1=O [ONC0005292, alogliptin benzoate] | 73.26
CC1(C)S[C@@H]2[C@H](NC(=O)[C@H](NC(=O)N3CCN(S(C)(=O)=O)C3=O)c3ccccc3)C(=O)N2[C@H]1C(=O)O [ONC0004361, mezlocillin sodium] | 94.17
CS(=O)(=O)CCNCc1nc(-c2ccc3ncnc(Nc4ccc(OCc5cccc(F)c5)c(Cl)c4)c3c2)cs1 [ONC0000149, gw583340] | 73.7
N=C(N)/N=C(\N)N1CCOCC1 [ONC0005372, moroxydine hydrochloride] | 114.7
C[N+](C)(C)NCCC(=O)[O-] [ONC0003642, meldonium] | 57.83
COC(=O)NC(=S)Nc1ccccc1NC(=S)NC(=O)OC [ONC0002380, thiophanate methyl] | 60.95
COc1ccc(-c2cc(=O)c3c(O)cc(O[C@@H]4O[C@H](CO[C@@H]5O[C@@H](C)[C@H](O)[C@@H](O)[C@H]5O)[C@@H](O)[C@H](O)[C@H]4O)cc3o2)cc1O [ONC0003167, diosmin] | 94.36
CCCCNc1ncc2c(-c3ccc(CN4CCN(C)CC4)cc3)cn([C@H]3CC[C@H](O)CC3)c2n1 [ONC0001124, unc2025 hydrochloride] | 69.33
COc1ccc(C(=O)c2ccc(C)cc2)c(O)c1 [ONC0005281, mexeneone] | 59.35
